Values quoted from earlier work as cited in US20150147295A1, “COMBINATION THERAPY FOR TREATING HCV INFECTION IN SPECIFIC PATIENT SUBGENOTYPE SUB-POPULATION” (priority 2013, published 2015).
At least one compound was matched to its structure with a doubt left.

Test system: HCV
Settings: telaprevir with PegIFN/RBV, cited from earlier work

For `CCC[C@H](NC(=O)[C@@H]1[C@H]2CCC[C@H]2CN1C(=O)[C@@H](NC(=O)[C@@H](NC(=O)c1cnccn1)C1CCCCC1)C(C)(C)C)C(=O)C(=O)NC1CC1` [telaprevir], the “difference in SVR rates, non-TT compared to TT genotype” value (rs8099917) is given as 56.2% and the “difference in SVR rates, non-CC compared to CC genotype” value (rs12979860) is given as 51.5%.
